The list shows a part of the results. Single values are uncertain, as repeats are few or missing.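 The apoptosis fraction was the count of cleaved-PARP antibody-stained nuclei relative to all DNA-stained nuclei, imaged in 1,536-well plates. Screening doses were set so most cells survived, and baseline and induced cleaved-PARP levels vary greatly across cell lines.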
Tested on: CBRC017 (line from a melanoma biopsy)
Test: cleaved PARP positive nuclei fraction relative to DMSO control; melanoma cells; higher = more apoptosis
Conditions: library dose: low library concentration; 72 h

Structure (SMILES) | cleaved PARP positive nuclei fraction
NC1(c2ccc(-c3nc4ccn5c(=O)[nH]nc5c4cc3-c3ccccc3)cc2)CCC1 + Cc1cc([N+](=O)[O-])ccc1NS(=O)(=O)c1cc(Cl)ccc1Cl [FH535] (first compound 0.4 µM, partner dose 1 µM) | 566%
NC1(c2ccc(-c3nc4ccn5c(=O)[nH]nc5c4cc3-c3ccccc3)cc2)CCC1 + O=S(=O)(c1ccccc1)N(CC(F)(F)F)c1ccc(C(O)(C(F)(F)F)C(F)(F)F)cc1 [T0901317] (first compound 0.4 µM, partner dose 1.4 µM) | 98.9%
CS(=O)(=O)c1ccc(C(=O)Nc2ccc(Cl)c(-c3ccccn3)c2)c(Cl)c1 [vismodegib] + Oc1cc(-c2nc(-c3ccccc3)[nH]c2-c2ccncc2)ccc1Cl [L779450] (first compound 1 µM, partner dose 0.2 µM) | 71.7%
C[C@]1(O)C[C@@H](c2nc(-c3ccc4ccc(-c5ccccc5)nc4c3)c3c(N)nccn32)C1 + CC(C)CCN1c2nc(Nc3cc(F)c(O)c(F)c3)ncc2N(C)C(=O)C1C [BID1870] (first compound 0.4 µM, partner dose 0.2 µM) | 91.3%
Cn1cnc2c(F)c(Nc3ccc(Br)cc3Cl)c(C(=O)NOCCO)cc21 [selumetinib] + CC(C)CCN1c2nc(Nc3cc(F)c(O)c(F)c3)ncc2N(C)C(=O)C1C [BID1870] (first compound 0.015 µM, partner dose 0.2 µM) | 102%
C[C@]1(O)C[C@@H](c2nc(-c3ccc4ccc(-c5ccccc5)nc4c3)c3c(N)nccn32)C1 + CCN(CC)CCCCNc1ncc2cc(-c3cc(OC)cc(OC)c3)c(NC(=O)NC(C)(C)C)nc2n1 [PD173074] (first compound 0.4 µM, partner dose 0.1 µM) | 90.7%
CCCCCCCCc1ccc(CCC(N)(CO)CO)cc1 [fingolimod] + Cn1cc(/C=C2\C(=O)Nc3cccnc32)c2ccccc21 [GW441756] (first compound 2 µM, partner dose 0.4 µM) | 206%
CS(=O)(=O)c1ccc(C(=O)Nc2ccc(Cl)c(-c3ccccn3)c2)c(Cl)c1 [vismodegib] + COc1ccc(COc2ccc(Cc3cnc(N)nc3N)cc2OC)cc1 [GW2580] (first compound 1 µM, partner dose 1 µM) | 95.2%
CC(=O)O[C@@]12CO[C@@H]1C[C@H](O)[C@@]1(C)C(=O)[C@H](O)C3=C(C)[C@@H](OC(=O)[C@H](O)[C@@H](NC(=O)OC(C)(C)C)c4ccccc4)C[C@@](O)([C@@H](OC(=O)c4ccccc4)[C@H]21)C3(C)C [Docetaxel] + c1cc(-c2cnn3cc(-c4ccc(OCCN5CCCCC5)cc4)cnc23)ccn1 [Dorsomorphin] (first compound 0.0001 µM, partner dose 0.4 µM) | 198%
CS(=O)(=O)c1ccc(C(=O)Nc2ccc(Cl)c(-c3ccccn3)c2)c(Cl)c1 [vismodegib] + O=C(Nc1ccccc1)c1cc([N+](=O)[O-])ccc1Cl [GW9662] (first compound 1 µM, partner dose 2 µM) | 83.8%
NC(=O)c1ccc(N(C(N)=O)c2c(F)cccc2F)nc1-c1ccc(F)cc1F + COc1ccc(-c2ccc3c(N4CCOCC4)nc(N4C[C@@H](C)O[C@@H](C)C4)nc3n2)cc1CO [KU0063794] (first compound 0.4 µM, partner dose 0.02 µM) | 116%
CN(c1ncccc1CNc1nc(Nc2ccc3c(c2)CC(=O)N3)ncc1C(F)(F)F)S(C)(=O)=O + Oc1nc(-c2ccc(C(F)(F)F)cc2)nc2c1CSCC2 [XAV939] (first compound 0.08 µM, partner dose 2 µM) | 168%
CS(=O)(=O)c1ccc(C(=O)Nc2ccc(Cl)c(-c3ccccn3)c2)c(Cl)c1 [vismodegib] + COC(=O)c1sccc1S(=O)(=O)Nc1ccc(Nc2ccccc2)cc1OC [GSK0660] (first compound 1 µM, partner dose 1 µM) | 55.3%
Cn1sc(=O)n(Cc2ccccc2)c1=O + O=C(O)C(=O)Nc1sc2c(c1C(=O)O)CCNC2 [TCS401] (first compound 0.4 µM, partner dose 1.66667 µM) | 84.7%
Cn1cnc2c(F)c(Nc3ccc(Br)cc3Cl)c(C(=O)NOCCO)cc21 [selumetinib] + N#Cc1c(O)c2c(-c3ccc(-c4ccccc4O)cc3)csc2[nH]c1=O [A769662] (first compound 0.015 µM, partner dose 2 µM) | 85.9%
CCN(CC)CCNC(=O)c1c(C)[nH]c(/C=C2\C(=O)Nc3ccc(F)cc32)c1C [sunitinib] + N#Cc1c(O)c2c(-c3ccc(-c4ccccc4O)cc3)csc2[nH]c1=O [A769662] (first compound 0.4 µM, partner dose 2 µM) | 73%

Shown as tab-separated lines: entries from further up.
Structure (SMILES)	cleaved PARP positive nuclei fraction
CS(=O)(=O)c1ccc(C(=O)Nc2ccc(Cl)c(-c3ccccn3)c2)c(Cl)c1 [vismodegib] + O=C(Nc1ccccc1)c1cc([N+](=O)[O-])ccc1Cl [GW9662] (first compound 1 µM, partner dose 2 µM)	83.8%
NC(=O)c1ccc(N(C(N)=O)c2c(F)cccc2F)nc1-c1ccc(F)cc1F + COc1ccc(-c2ccc3c(N4CCOCC4)nc(N4C[C@@H](C)O[C@@H](C)C4)nc3n2)cc1CO [KU0063794] (first compound 0.4 µM, partner dose 0.02 µM)	116%
CN(c1ncccc1CNc1nc(Nc2ccc3c(c2)CC(=O)N3)ncc1C(F)(F)F)S(C)(=O)=O + Oc1nc(-c2ccc(C(F)(F)F)cc2)nc2c1CSCC2 [XAV939] (first compound 0.08 µM, partner dose 2 µM)	168%
CS(=O)(=O)c1ccc(C(=O)Nc2ccc(Cl)c(-c3ccccn3)c2)c(Cl)c1 [vismodegib] + COC(=O)c1sccc1S(=O)(=O)Nc1ccc(Nc2ccccc2)cc1OC [GSK0660] (first compound 1 µM, partner dose 1 µM)	55.3%
Cn1sc(=O)n(Cc2ccccc2)c1=O + O=C(O)C(=O)Nc1sc2c(c1C(=O)O)CCNC2 [TCS401] (first compound 0.4 µM, partner dose 1.66667 µM)	84.7%

Further results:

Structure (SMILES) | cleaved PARP positive nuclei fraction
CS(=O)(=O)c1ccc(C(=O)Nc2ccc(Cl)c(-c3ccccn3)c2)c(Cl)c1 [vismodegib] + Cn1cc(/C=C2\C(=O)Nc3cccnc32)c2ccccc21 [GW441756] (first compound 1 µM, partner dose 0.4 µM) | 90.9%
COc1ccc(C2=N[C@@H](c3ccc(Cl)cc3)[C@@H](c3ccc(Cl)cc3)N2C(=O)N2CCNC(=O)C2)c(OC(C)C)c1 [Nutlin-3] + Cn1cc(/C=C2\C(=O)Nc3cccnc32)c2ccccc21 [GW441756] (first compound 0.1 µM, partner dose 0.4 µM) | 98.2%
COc1ccc(C2=N[C@@H](c3ccc(Cl)cc3)[C@@H](c3ccc(Cl)cc3)N2C(=O)N2CCNC(=O)C2)c(OC(C)C)c1 [Nutlin-3] + COc1ccc(COc2ccc(Cc3cnc(N)nc3N)cc2OC)cc1 [GW2580] (first compound 0.1 µM, partner dose 1 µM) | 186%
C[C@@H](N)c1ccc(C(=O)Nc2ccnc3[nH]ccc23)cc1 + O=C1NC(=O)/C(=C/c2ccc(-c3ccc(F)cc3O)o2)S1 [AS252424] (first compound 0.4 µM, partner dose 1 µM) | 88%
C[C@]1(O)C[C@@H](c2nc(-c3ccc4ccc(-c5ccccc5)nc4c3)c3c(N)nccn32)C1 + Oc1cc(-c2nc(-c3ccccc3)[nH]c2-c2ccncc2)ccc1Cl [L779450] (first compound 0.4 µM, partner dose 0.2 µM) | 90.9%
CCCCCCCCc1ccc(CCC(N)(CO)CO)cc1 [fingolimod] + COC(=O)c1sccc1S(=O)(=O)Nc1ccc(Nc2ccccc2)cc1OC [GSK0660] (first compound 2 µM, partner dose 1 µM) | 86%
CCN(CC)CCNC(=O)c1c(C)[nH]c(/C=C2\C(=O)Nc3ccc(F)cc32)c1C [sunitinib] + O=C1NC(=O)/C(=C/c2ccc(-c3ccc(F)cc3O)o2)S1 [AS252424] (first compound 0.4 µM, partner dose 1 µM) | 89.3%
NC1(c2ccc(-c3nc4ccn5c(=O)[nH]nc5c4cc3-c3ccccc3)cc2)CCC1 + CC(C)CCN1c2nc(Nc3cc(F)c(O)c(F)c3)ncc2N(C)C(=O)C1C [BID1870] (first compound 0.4 µM, partner dose 0.2 µM) | 194%
CC(=O)O[C@@]12CO[C@@H]1C[C@H](O)[C@@]1(C)C(=O)[C@H](O)C3=C(C)[C@@H](OC(=O)[C@H](O)[C@@H](NC(=O)OC(C)(C)C)c4ccccc4)C[C@@](O)([C@@H](OC(=O)c4ccccc4)[C@H]21)C3(C)C [Docetaxel] + CCCCCCCCCCCC1=C(O)C(=O)C=C(O)C1=O [Embelin] (first compound 0.0001 µM, partner dose 1.2 µM) | 129%
Cn1cnc2c(F)c(Nc3ccc(Br)cc3Cl)c(C(=O)NOCCO)cc21 [selumetinib] + COc1ccc(COc2ccc(Cc3cnc(N)nc3N)cc2OC)cc1 [GW2580] (first compound 0.015 µM, partner dose 1 µM) | 107%
C[C@]1(O)C[C@@H](c2nc(-c3ccc4ccc(-c5ccccc5)nc4c3)c3c(N)nccn32)C1 + O=C(O)C(=O)Nc1sc2c(c1C(=O)O)CCNC2 [TCS401] (first compound 0.4 µM, partner dose 1.66667 µM) | 76.1%
CCN(CC)CCNC(=O)c1c(C)[nH]c(/C=C2\C(=O)Nc3ccc(F)cc32)c1C [sunitinib] + c1cc(-c2cnn3cc(-c4ccc(OCCN5CCCCC5)cc4)cnc23)ccn1 [Dorsomorphin] (first compound 0.4 µM, partner dose 0.4 µM) | 99.6%
CC1(C)CCC(c2ccc(Cl)cc2)=C(CN2CCN(c3ccc(C(=O)NS(=O)(=O)c4ccc(N[C@H](CCN5CCOCC5)CSc5ccccc5)c(S(=O)(=O)C(F)(F)F)c4)cc3)CC2)C1 + COc1cc(N2CCC(N3CCN(C)CC3)CC2)ccc1Nc1ncc(Cl)c(Nc2ccccc2S(=O)(=O)C(C)C)n1 [NVP-TAE684] (first compound 0.4 µM, partner dose 0.08 µM) | 686%
Cn1sc(=O)n(Cc2ccccc2)c1=O + CCN(CC)CCCCNc1ncc2cc(-c3cc(OC)cc(OC)c3)c(NC(=O)NC(C)(C)C)nc2n1 [PD173074] (first compound 0.4 µM, partner dose 0.1 µM) | 65.9%
CCN(CC)CCNC(=O)c1c(C)[nH]c(/C=C2\C(=O)Nc3ccc(F)cc32)c1C [sunitinib] + CCCCCCCCCCCC1=C(O)C(=O)C=C(O)C1=O [Embelin] (first compound 0.4 µM, partner dose 1.2 µM) | 72.7%

Reference: the supplement of paper PMC4604168 (melanoma cell lines)
